PubChem BioAssay AID1671195, Yale University – 2021

- Aim: 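Genes whose knockdown alters LDL uptake in liver cancer cells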 (primary screen)
- Cells: human Huh7 hepatoma cells
- Reagents: siRNA pool against human genes, 18 nM
- Duration: about 2 to 2.5 days of knockdown, then 8 h LDL uptake
- Treatment: DiI-labelled LDL at 30 µg/ml for 8 h, in lipoprotein-deficient serum medium
- Measurement: 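Fluorescent LDL signal imaged in cells, scaled to the plate median, robust z-score for each replicate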
- Scale: robust z-score: higher = more LDL uptake after knockdown
- Call rule: 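Active when two or more replicates show a robust z-score above 2 or below -2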
This is a random part of about 22,000 reagents tested. In the full data, about 1,510 (6.9%) are marked active. 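Active includes knockdowns raising or lowering LDL uptake; positive z-scores mean more uptake, negative mean less.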 Reagent sequences are not shown.

How did the screen score ZBBX (GeneID 79740)?
robust z-score, replicate 1: 0.0554; robust z-score, replicate 2: -0.68; robust z-score, replicate 3: -0.433; outcome: inactive

What is on record for SNRNP200 (GeneID 23020)?
robust z-score, replicate 1: 0.294; robust z-score, replicate 2: -0.00948; robust z-score, replicate 3: 0.488; outcome: inactive

Which result is listed for DNTT (GeneID 1791)?
robust z-score, replicate 1: -0.059; robust z-score, replicate 2: -0.0895; robust z-score, replicate 3: -0.0682; outcome: inactive

What did the screen give for FAM120A (GeneID 23196)?
robust z-score, replicate 1: -0.655; robust z-score, replicate 2: 2.08; robust z-score, replicate 3: -1.1; outcome: inactive

With PIP4K2A (GeneID 5305), how do the results read?
robust z-score, replicate 1: 3.44; robust z-score, replicate 2: 2.79; robust z-score, replicate 3: 3.29; outcome: active

What is on record for PTH1R (GeneID 5745)?
robust z-score, replicate 1: -0.932; robust z-score, replicate 2: -1.31; robust z-score, replicate 3: -0.69; outcome: inactive

Which result is listed for ZNF689 (GeneID 115509)?
robust z-score, replicate 1: -1.72; robust z-score, replicate 2: -0.626; robust z-score, replicate 3: -1.25; outcome: inactive

How did the screen score TSACC (GeneID 128229)?
robust z-score, replicate 1: 0.248; robust z-score, replicate 2: -0.225; robust z-score, replicate 3: 0.394; outcome: inactive

For DYNC1LI2 (GeneID 1783), what was measured?
robust z-score, replicate 1: 1.08; robust z-score, replicate 2: 1.7; robust z-score, replicate 3: 1.38; outcome: inactive

What is on record for NFKBIL1 (GeneID 4795)?
robust z-score, replicate 1: 0.516; robust z-score, replicate 2: 0.455; robust z-score, replicate 3: 1.2; outcome: inactive

Which result is listed for TMEM176B (GeneID 28959)?
robust z-score, replicate 1: 0.0619; robust z-score, replicate 2: -1.09; robust z-score, replicate 3: 0.879; outcome: inactive

How did the screen score COMMD3 (GeneID 23412)?
robust z-score, replicate 1: -0.575; robust z-score, replicate 2: 0.429; robust z-score, replicate 3: 0.0543; outcome: inactive

2 neighbouring reagents already listed, quoted:
ZNF689 (GeneID 115509) → robust z-score, replicate 1 = -1.72; robust z-score, replicate 2 = -0.626; robust z-score, replicate 3 = -1.25; outcome = inactive
TSACC (GeneID 128229) → robust z-score, replicate 1 = 0.248; robust z-score, replicate 2 = -0.225; robust z-score, replicate 3 = 0.394; outcome = inactive
